The source of these data is PubChem BioAssay AID2685 (National Center for Advancing Translational Sciences (NCATS), 2010).

A short description of this test: qHTS Assay for Lipid Storage Modulators in Drosophila S3 Cells.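 On cell number change: cells counted by Cell Tracker Red CMTPX staining in the red channel.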 To be noted: BODIPY lipid droplet fluorescence, 18-24 h; for cell number change: measured here: cell count max response, cells fed with added oleic acid. The procedure, abridged: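 Drosophila S3 cells got compounds at several concentrations plus oleic acid (400 uM solution). Laser-scanning cytometry with 488 nm excitation read lipid droplets at 500-530 nm and cells at 575-640 nm. Percent activity was relative to 20 uM Triacsin C.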

Where [1] appears, read: measured here: cell number channel AC50, cells fed with added oleic acid.
Setting [2] is: measured here: lipid fluorescence (Fed channel) AC50, cells fed with added oleic acid.

In general, AC50 refers to the midpoint of the concentration-response curve, whichever way the signal moves. Read a high AC50 as weaker potency.

Some of the results follow. The main result of the screen is listed elsewhere. These columns were measured beside it and carry no call. Most of these compounds were active or inconclusive in the main read-out, so they are no random draw. The note in brackets gives the kind of curve behind each potency; many fits are weak.

As for `O=c1[nH]c(Cn2nnc(-c3ccccc3)n2)nc2scc(-c3ccccc3)c12`, the cell number change was -13.2%.
For `Cc1cnc(NC(=O)CSc2nnc(Cc3ccccc3)o2)s1`, the cell number change stood at 51.3%. Besides, under setting [1], the AC50 is 20.6 µM [rising, single point].
For the compound `NC(=O)c1ccsc1NC(=O)COC(=O)CCOc1ccccc1`, the cell number change is -61.4%. Under setting [1], the AC50 was 13 µM [falling, partial curve]. In addition, the AC50 under setting [2] was 10.3 µM [falling, partial curve].
With `Brc1ccc2oc3c(N4CCOCC4)ncnc3c2c1`, the cell number change was -8.3%.
Turning to `CCc1cccc(CC)c1NC(=O)c1cc(CN2C(=O)c3ccccc3C2=O)ccc1OC`, the cell number change was found to be 6.2%. The AC50 under setting [2] is 0.0058 µM [rising, full curve, poor fit].
Take `CCOC(=O)[C@H]1[C@H]2COc3ccc(OC)cc3[C@@H]2N2C(=O)CN(Cc3ccc(F)cc3)C(=O)[C@@]12C`: the cell number change was -5.78%. Moreover, under setting [2], the AC50 is 0.651 µM [falling, single point].
As for `COc1ccc(-c2n[nH]c(=S)n2-c2ccc(C)cc2C)cc1`, the cell number change was -0.365%.
Still for that read-out and setting: next, `Cc1cc(=S)cc(C)n1CCCn1ccnc1`: -11.1%.
Turning to `COc1ccc(-c2cc(C(=O)N3CCCCCC3)c3cc(C)ccc3n2)cc1`, the cell number change was -19.6%. Also, under setting [2], the AC50 was 20.6 µM [falling, partial curve].
As to `Cc1ccc(S(=O)(=O)N2CCOCC2)cc1C(=O)OCC(=O)Nc1ccc2[nH]c(=O)[nH]c2c1`, the cell number change was 0.5%.
For the compound `O=C(CNC(=O)c1ccc(Cl)cc1Cl)NCCCn1ccnc1`, the cell number change amounted to 64.4%. For the same compound, the AC50 under setting [1] is 29.1 µM [rising, single point]. The concentration at half-maximal activity (AC50) under setting [2] was 23.1 µM [rising, single point].
Consider `N#Cc1ccsc1NC(=O)C1=COCCO1`, for which the cell number change was found to be 5.07%. Under setting [1], the AC50 was 3.66 µM [rising, single point]. Moreover, the AC50 under setting [2] was 3.66 µM [rising, single point].
Consider `Cc1ccc2c(c1)C1CN(C)CCC1N2S(=O)(=O)c1cccc(F)c1` (configuration not stated), for which the AC50 under setting [2] is 18.4 µM [falling, single point].
Take `CCCCS(=O)CC(CS(=O)CCCC)OC(=O)c1ccc(C)cc1` (configuration not stated): the cell number change stood at 10.5%. Also, the AC50 under setting [2] is 1.84 µM [falling, partial curve].
`COC(=O)Cc1c(O)ccn(Cc2cccc3ccccc23)c1=O`: the cell number change is -82.9%. Further, the AC50 under setting [1] is 4.61 µM [falling, partial curve]. Under setting [2], the AC50 was 5.8 µM [falling, partial curve].
Consider `Cc1cc(NC(=O)CSc2nnc(CNC(=O)c3ccc(C(C)(C)C)cc3)o2)no1`, for which the cell number change is -34.7%. Moreover, under setting [1], the AC50 was 29.1 µM [falling, single point]. Moreover, the AC50 under setting [2] was 1.16 µM [falling, partial curve, poor fit].
For `Cc1cc(C)nc(-n2nc(C)cc2NC(=O)c2cccc(S(=O)(=O)N3CCOCC3)c2)n1`, the cell number change stood at 16.4%. Also, the AC50 under setting [2] is 0.291 µM [rising, full curve, poor fit].
As to `COC(=O)CSc1nc(NCC(C)C)nc(N2CCOCC2)n1`, the cell number change was found to be 14.2%. Further, under setting [2], the AC50 was 29.1 µM [rising, single point].
With `C=CCN1C(=O)/C(=C/c2ccc(OCC(=O)O)cc2)S/C1=N/c1nccs1`, the cell number change was 56.4%. In addition, under setting [1], the AC50 is 3.26 µM [rising, full curve]. The AC50 under setting [2] was 6.51 µM [rising, partial curve, poor fit].
For the compound `CCC(=O)NNC(=O)CCC(=O)Nc1ccccc1`, the cell number change was 5.93%.
For `COc1cc(OC)c(OC)cc1CN1CCN(Cc2cccn2C)CC1`, the cell number change was -31.7%. Also, the concentration at half-maximal activity (AC50) under setting [1] was 3.66 µM [falling, full curve]. Further, under setting [2], the AC50 was 0.206 µM [falling, full curve, poor fit].
For `COc1ccc(N2CCN(c3ccc(NC(=O)NN)cc3)CC2)cc1`, the cell number change is -8.21%. Further, the AC50 under setting [2] was 29.1 µM [rising, single point].
Regarding `CC(=O)c1cccc(NC(=O)C(C)OC(=O)c2cc(C)oc2C)c1` (configuration not stated), the cell number change stood at 56.2%. The AC50 under setting [1] is 16.4 µM [rising, partial curve].
`Cc1ccc(NC(=O)CN2C(=O)NC3(CCCc4ccccc43)C2=O)c(C)c1` (configuration not stated): the AC50 is, setting by setting: under setting [1], 0.082 µM [rising, full curve, poor fit]; under setting [2], 0.517 µM [rising, partial curve, poor fit].
With `CC(C)c1ccc(S(=O)(=O)N2CCC(C(=O)N3CCC3)CC2)cc1`, the cell number change came to 27.6%.
Turning to `COC(=O)CSc1nsc(SCC(=O)OC)n1`, the cell number change was -11.3%. For the same compound, the AC50 under setting [2] is 32.6 µM [falling, single point].
As for `Cc1cc(C)n2nc(CCCO)nc2n1`, the cell number change worked out at 49.4%. In addition, under setting [1], the AC50 was 11.6 µM [rising, partial curve, poor fit]. In addition, the half-maximal activity concentration (AC50) under setting [2] is 13 µM [rising, partial curve].
For `O=C(Nc1ccc(-c2cn3ccccc3n2)cc1)c1cccs1`, the cell number change was -20.8%. Moreover, the AC50 under setting [1] was 1.84 µM [rising, single point].
Regarding `CC1CCCC(NC(=O)c2ccc3c(c2)NC(=O)CS3)C1C` (configuration not stated), the cell number change worked out at 18.5%. Moreover, under setting [2], the AC50 is 18.4 µM [falling, partial curve, poor fit].
With `Cc1c(NC(=O)C2CCCN2S(=O)(=O)c2cccc3nsnc23)cccc1C(=O)O` (configuration not stated), the AC50 runs as follows: under setting [1], 1.16 µM [rising, single point]; under setting [2], 1.16 µM [rising, single point].
On to `Cc1csc(SCC(=O)N(C)CC(=O)Nc2ccccc2Cl)n1`, for which the cell number change came out at 17.8%. The AC50 under setting [2] is 13 µM [rising, single point].
As to `CC1COc2c(N3CCN(C)CC3)c(F)cc3c(=O)c(C(=O)O)cn1c23` (configuration not stated), the cell number change was -0.867%. Under setting [1], the AC50 was 1.16 µM [falling, full curve]. Also, under setting [2], the AC50 was 1.16 µM [falling, full curve].
As for `CCN1C(=O)c2ccccc2Sc2ccc(C(=O)NCCCN(CC(C)C)CC(C)C)cc21`, the cell number change worked out at 16.1%. Besides, the AC50 under setting [2] is 2.31 µM [falling, single point].
As to `COc1ccc(COCC(O)CN(Cc2ccccc2)C(C)C)cc1OC` (configuration not stated), the cell number change was -19.9%.
Consider `O=c1c2ccccc2nc(SCCN2CCOCC2)n1CCc1ccccc1`, for which the cell number change worked out at 28.6%. In addition, the half-maximal activity concentration (AC50) under setting [2] was 0.00461 µM [rising, full curve, poor fit].
As to `O=S(=O)(Nc1cccc(-n2cnnn2)c1)c1ccc(F)cc1`, the cell number change worked out at 18.5%. Moreover, under setting [1], the AC50 was 2.59 µM [rising, partial curve].
As to `CCC1CCCCN1C(=O)CSC1=NN2CCCC(=O)N=C2S1` (configuration not stated), the cell number change came to 17.3%. Besides, under setting [2], the half-maximal activity concentration (AC50) was 2.91 µM [rising, full curve, poor fit].
Turning to `Cc1ccc(/C(N)=N/OC(=O)Oc2ccccc2)cc1`, the cell number change is -21.6%. Further, the AC50 under setting [1] is 0.00651 µM [falling, full curve, poor fit]. Further, the AC50 under setting [2] is 0.731 µM [falling, full curve, poor fit].
